At least one structure is not confirmed: it was looked up by name or label, or the drawing left a doubt. Some of these results come from one statement about several compounds together.
Tests used:
[1] = test system: scn1Lab mutants; assay: Locomotion tracking assay of seizure behavior (96-well format); details: 1 mM, 5 dpf, 6-12 fish; for reduction of seizure activity, measured as a change in mean velocity: baseline vs after drug
[2] = test system: scn1Lab mutants; type: in vivo, zebrafish; details: 1 mM bath applied, seven fish per drug, vs baseline

| Compound | reduction of seizure activity, measured as a change in mean velocity [1] | fractional time spent seizing ([2]; 5-6 dpf) | Epileptiform event frequency (burst frequency; interictal- and ictal-like discharges) ([2]; agar-embedded mutants 5-6 dpf) | effect on locomotor seizure behavior [1] |
| --- | --- | --- | --- | --- |
| NC(=O)N1c2ccccc2C=Cc2ccccc21 [carbamazepine] | more than 34% |  |  |  |
| CN1C(=O)CN=C(c2ccccc2)c2cc(Cl)ccc21 [diazepam] | more than 34% |  |  |  |
| CC(=O)[C@H]1CC[C@H]2[C@@H]3CC[C@H]4C[C@](C)(O)CC[C@]4(C)[C@H]3CC[C@]12C [ganaxolone] | more than 34% |  |  |  |
| CC(C)(C)C(O)/C=C/c1ccc2c(c1)OCO2 (centres unmarked) [stiripentol] | more than 34% |  |  |  |
| CCCC(CCC)C(=O)O [valproate] | more than 34% | reduced | reduced | effectively inhibited seizure behavior |

From patent US10874643B2 (priority 2015, dated 2020)
